Measured values: the supplement of paper PMC10689618
Counter-ions that a name gives are not always drawn. Some of the results follow. Single values are uncertain, as repeats are few or missing.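 Primary human fetal astrocytes engulfed labelled rat cortical synaptosomes, measured as a red/green ratio corrected for calcein live-cell signal and scaled to the plate median. Toxicity meant calcein falling over 30%; decreased phagocytosis meant below 70% of median above 5 µM.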

Tests used:
Human fetal astrocytes [1] = assay: loss of total cells relative to no-compound high-control median (toxicity); higher = more toxic (fewer cells); details: 24 h
Human fetal astrocytes [2] = assay: synaptosome phagocytosis (pHrodo/calcein intensity ratio) relative to plate median of data wells; higher = more phagocytosis; details: 24 h

SMILES	loss of total cells (Human fetal astrocytes [1]; 1.39 µM) [%]	loss of total cells (Human fetal astrocytes [1]; 2.78 µM) [%]	loss of total cells (Human fetal astrocytes [1]; 5.56 µM) [%]	loss of total cells (Human fetal astrocytes [1]; 11.11 µM) [%]	loss of total cells (Human fetal astrocytes [1]; 22.22 µM) [%]	synaptosome phagocytosis (Human fetal astrocytes [2]; 1.39 µM) [%]	synaptosome phagocytosis (Human fetal astrocytes [2]; 2.78 µM) [%]	synaptosome phagocytosis (Human fetal astrocytes [2]; 5.56 µM) [%]	synaptosome phagocytosis (Human fetal astrocytes [2]; 11.11 µM) [%]	synaptosome phagocytosis (Human fetal astrocytes [2]; 22.22 µM) [%]
O=C(CCNNC(=O)c1ccncc1)NCc1ccccc1 [Nialamide]	-23.2	18.6	-5.2	-1	7.5	133	114	92	108	92.3
CC(C(O)c1ccc(O)cc1)N1CCC(Cc2ccccc2)CC1 (stereo not given) [Ifenprodil tartrate]	-14.7	13.1	26.8	17.1	15.9	87.7	137	95.8	104	121
CN1CCc2ccccc2Cc2[nH]c3ccccc3c2CC1	-18.5	-14	2.3	13.3	14	85.1	70.3	112	99.4	120
Oc1cc2c(cc1O)C(c1ccccc1)CNCC2 (racemic)	-15.5	-14.5	-18.1	6.7	6.4	89.9	126	123	123	107
OCC1OC(n2cnc3c(NC4CCCCC4)ncnc32)C(O)C1O (stereo not given) [N6-Cyclohexyladenosine]	-12.1	-7.7	-9.1	-19.3	4.8	88.4	98.8	141	80.1	106
N#C/C(=C\c1c[nH]c2ccccc12)C(=O)c1ccc(O)c(O)c1 [Tyrphostin AG 808]	-29.5	-24.9	-21.3	-18	-18.9	93.5	92	106	86.9	128
CSc1nc(N)c2ncn([C@@H]3O[C@H](COP(=O)(O)OP(=O)(O)OP(=O)(O)O)[C@H](O)C3O)c2n1 (stereo not given in full) [2-Methylthioadenosine triphosphate tetrasodium]	-1.1	-1.2	-2.3	13	-6.4	93.3	78.5	88.5	80.4	90.4
CCSC(=N)N [S-Ethylisothiourea hydrobromide]	-15.5	-6	0.8	-23.8	-4	76.8	123	98.1	99.1	71
O=C(O)CNC(=O)C(CS)Cc1ccccc1 (racemic) [DL-Thiorphan]	-27	-42.8	-18	-8.8	-28.8	58.5	90.7	99.6	110	114
Cn1cnc([N+](=O)[O-])c1Sc1ncnc2[nH]cnc12 [Azathioprine]	-18.3	-8.7	-10.6	-26.5	-11.7	63.2	118	109	94.2	131
Brc1ccc([C@H]2CN3CCSC3=N2)cc1 [S(-)-p-Bromotetramisole oxalate]	-17.6	-16.2	5.1	-6.7	2.6	117	118	121	111	140
CN1[C@@H](CC(=O)c2ccccc2)CCC[C@H]1C[C@H](O)c1ccccc1 [alpha-Lobeline hydrochloride]	-5.2	3.2	-9.9	21	20.6	78.5	92	88.5	90.2	84.8
COc1cc2c(cc1OC)-c1c/c(=N\c3c(C)cc(C)cc3C)n(C)c(=O)n1CC2 [Trequinsin hydrochloride]	-7.8	-21.9	-9	-13.4	-0.8	109	96.9	116	124	86.9
CN(C)c1ccc(O)c2c1C[C@H]1C[C@H]3[C@H](N(C)C)C(O)=C(C(N)=O)C(=O)[C@@]3(O)C(O)=C1C2=O [Minocycline hydrochloride]	6.2	-4.1	-8.9	9.5	-7.5	98.2	114	130	111	88.8
CC1CN(S(=O)(=O)c2cccc3cnccc23)CCN1 (stereo not given)	-19.4	7.7	18.3	12.4	25.2	114	112	96.3	114	91.8
Nc1ncnc2c1nc(Sc1ccc(Cl)cc1)n2C1OC2COP(=O)(O)O[C@@H]2[C@@H]1O (stereo not given in full) [8-(4-Chlorophenylthio)-cAMP sodium]	0.7	0.9	-10.6	-6.7	4.1	102	137	117	136	115
Nc1nc2c(nc(Br)n2C2OC3COP(=O)(O)O[C@@H]3C2O)c(=O)[nH]1 (stereo not given in full) [8-Bromo-cGMP sodium]	-24.6	-14.7	-7.8	-26.5	11.7	101	79.6	103	116	107
CCCNC[C@H](O)COc1ccccc1C(=O)CCc1ccccc1 [(S)-(-)-propafenone hydrochloride]	-13.4	-12.3	-1.7	-20.3	-21.4	93.3	80.7	71	97.4	89.2
CCN(CC)CCCC(C)Nc1ccnc2cc(Cl)ccc12 (stereo not given) [Chloroquine diphosphate]	-21.7	-19.8	-6.9	-2.2	-3.4	100	80.4	120	68.1	95.2

SMILES	loss of total cells (Human fetal astrocytes [1]; 1.39 µM) [%]	loss of total cells (Human fetal astrocytes [1]; 2.78 µM) [%]	loss of total cells (Human fetal astrocytes [1]; 5.56 µM) [%]	loss of total cells (Human fetal astrocytes [1]; 11.11 µM) [%]	loss of total cells (Human fetal astrocytes [1]; 22.22 µM) [%]	synaptosome phagocytosis (Human fetal astrocytes [2]; 1.39 µM) [%]	synaptosome phagocytosis (Human fetal astrocytes [2]; 2.78 µM) [%]	synaptosome phagocytosis (Human fetal astrocytes [2]; 5.56 µM) [%]	synaptosome phagocytosis (Human fetal astrocytes [2]; 11.11 µM) [%]	synaptosome phagocytosis (Human fetal astrocytes [2]; 22.22 µM) [%]
CC[C@H](C)C(=O)O[C@H]1CCC=C2C=C[C@H](C)[C@H](CC[C@@H]3C[C@@H](O)CC(=O)O3)[C@H]21 [Mevastatin]	-13.7	1.4	17.4	21.9	16.8	133	87.2	115	127	144
O=C(O)c1cc(=O)cc(C(=O)O)[nH]1 [Chelidamic acid]	-16.1	-18.6	-18.9	-16.6	-1.1	99.5	82.6	84.6	116	76.6
C=C1C(=O)O[C@H]2[C@H]1CC/C(C)=C/CC[C@@]1(C)O[C@@H]21 [Parthenolide]	-21.3	5	15.5	11.4	1.9	110	108	112	114	75.1
CC(C)(C)NCC(O)COc1cccc2[nH]c(=O)[nH]c12 (racemic)	-8.8	-9.4	2.5	-1.3	7.2	91.8	109	105	91.1	101
CC(C)(C)c1cc(/C=C(\C#N)C(N)=S)cc(C(C)(C)C)c1O [Tyrphostin AG 879]	-17.7	-30.8	-3.9	-1.1	24.7	114	115	112	93.8	64
COc1cc2c(CCNC(C)=O)c[nH]c2cc1O [6-Hydroxymelatonin]	8.8	-24.8	-4.9	-21.1	6.4	105	111	124	118	117
OC1(c2ccc(Cl)cc2)CCN(Cc2c[nH]c3ccccc23)CC1	-0.5	-27.6	10.8	16.2	20.6	114	109	87.4	88.6	94.8
Cc1cccc(C)c1NC(=O)C[N+](C)(C)C [Lidocaine N-methyl hydrochloride]	-26.1	-0.5	-11.7	22.9	22.4	104	102	86.9	79.1	110
CC(C)(C)NCC(O)c1cc(O)cc(O)c1 (stereo not given) [Terbutaline hemisulfate]	-32.6	-15.3	-3.9	1.1	-23	101	105	102	93.6	97.3
O=C(O)C1CCCNC1 (racemic) [(±)-Nipecotic acid]	9.2	-0.3	-3.2	3.1	4.1	145	131	112	102	135
COc1ccccc1N1CCN(CCN2C(=O)CC3(CCCC3)CC2=O)CC1 [BMY 7378 dihydrochloride]	-23.9	-13.2	-16.1	-17.5	-3.4	103	98.5	95.1	115	94.3
CCCCCCCC/C=C\CCCCCCCC(=O)O [Oleic Acid]	6.2	20.4	26.8	-2.9	16.8	101	157	136	147	116
Cn1c(=O)c2[nH]cnc2n(C)c1=O [Aminophylline ethylenediamine]	-5.5	-2.4	-19.8	12.1	6.4	108	78.2	109	116	92.2
COc1ccccc1N1CCN(CCN(C(=O)C2CCCCC2)c2ccccn2)CC1	-23.3	-18.9	-13.5	-28.7	-30.5	69.5	79.4	78.9	93.6	118
O=C(O)C1(C(=O)O)CCC1.[NH2-].[NH2-].[Pt+2] [Carboplatin]	-23.5	-9	-2.3	-7.6	-10.9	92.2	103	83.8	92.2	91
COc1ccccc1CNCCCCCCNCCCCCCCCNCCCCCCNCc1ccccc1OC [Methoctramine tetrahydrochloride]	-10.9	-5.9	6.1	-3.8	6.5	82.5	113	87.4	62.5	89.5
COC(=O)[C@@H](N)Cc1ccc(O)c(O)c1 [L-3,4-Dihydroxyphenylalanine methyl ester hydrochloride]	12.1	-8.5	-12.3	5.8	0.8	110	90.2	93.2	131	121
CNCC[C@@H](Oc1ccccc1C)c1ccccc1 [Tomoxetine]	-29.5	-42.2	-1.1	3.4	-0.8	86.7	97.9	102	80.1	95
CCCCCCCC/C=C\CCCCCCCC(=O)NCCO [N-Oleoylethanolamine]	4.3	-3.2	1.4	-2.9	15	128	98.9	107	87.8	125

Given as a markdown table: 2 of the compounds above.

| SMILES | loss of total cells (Human fetal astrocytes [1]; 1.39 µM) [%] | loss of total cells (Human fetal astrocytes [1]; 2.78 µM) [%] | loss of total cells (Human fetal astrocytes [1]; 5.56 µM) [%] | loss of total cells (Human fetal astrocytes [1]; 11.11 µM) [%] | loss of total cells (Human fetal astrocytes [1]; 22.22 µM) [%] | synaptosome phagocytosis (Human fetal astrocytes [2]; 1.39 µM) [%] | synaptosome phagocytosis (Human fetal astrocytes [2]; 2.78 µM) [%] | synaptosome phagocytosis (Human fetal astrocytes [2]; 5.56 µM) [%] | synaptosome phagocytosis (Human fetal astrocytes [2]; 11.11 µM) [%] | synaptosome phagocytosis (Human fetal astrocytes [2]; 22.22 µM) [%] |
| --- | --- | --- | --- | --- | --- | --- | --- | --- | --- | --- |
| COc1ccccc1N1CCN(CCN(C(=O)C2CCCCC2)c2ccccn2)CC1 | -23.3 | -18.9 | -13.5 | -28.7 | -30.5 | 69.5 | 79.4 | 78.9 | 93.6 | 118 |
| O=C(O)C1(C(=O)O)CCC1.[NH2-].[NH2-].[Pt+2] [Carboplatin] | -23.5 | -9 | -2.3 | -7.6 | -10.9 | 92.2 | 103 | 83.8 | 92.2 | 91 |
